The whole screen tested about 350,000 compounds, of which about 6,000 (1.7%) were called active. Rule as the data show it: active = CPE inhibition above about 20% (passing the limit was not always enough); inconclusive = no clear call, values can overlap the other calls; tested in BHK-21 cells. The inconclusive results got no clear call from the source.
test: protection of cells from dengue 2 killing – plate reader, single concentration, primary screen (AID 651640); conditions: DENV2-infected cells, cytopathic effect rescue, at 9.99 µM, stronger effect = higher value;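 also: 0% = median of neutral control wells and 100% = median of positive control wells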

SMILES | CPE inhibition
COc1cc(/C=N/Nc2ccc(Cl)c(C(=O)O)c2)ccc1OC(=O)c1ccc(F)cc1 | inconclusive: 25.7%
CCCCCCc1c(C)c2ccc(OCC(=O)N[C@@H](Cc3ccccc3)C(=O)O)cc2oc1=O | inconclusive: 28.5%

— PubChem BioAssay AID651640 (Broad Institute, 2012)
